Source: the supplement of paper PMC6445147
This is a noisy data set.

B1: human tRNA-Pro; a variant is named by its letters at N, in order (parent)
chain: GGCTCGTTGGTCTAGNGGTATGATTCTCGCTTAGGGTGCGAGAGGTCCCGGGTTCNNATCCCGGACGAGCCC

What was measured:
[1] = variants of: B1; assay: tRNA Pol-III promoter activity, log2 (circRNA frequency / plasmid DNA frequency) (log2 ratio); higher = stronger promoter activity; conditions: HEK293T; construct: no Pol-II promoter ((-)CMV library)
[2] = variants of: B1; assay: tRNA 3' processing efficiency (processed reads / all reads, maximum-likelihood estimate) (fraction); higher = more efficient 3' processing; conditions: HEK293T; construct: no Pol-II promoter ((-)CMV library)
[3] = variants of: B1; assay: tRNA 5' processing efficiency (processed reads / all reads, maximum-likelihood estimate) (fraction); higher = more efficient 5' processing; conditions: HEK293T; construct: CMV Pol-II promoter ((+)CMV library, decapped)

| Variant | tRNA Pol-III promoter activity (log2) [1] | tRNA 3' processing efficiency [2] | tRNA 5' processing efficiency [3] |
| --- | --- | --- | --- |
| GGCTCGTTGGTCTGGGGGTATGATTCTCGCTTAGGGTGCGAGAGGTCCCGGGATCAAATCCCGGACGAGCCC [GAA A14G T53A] | 0.265 | 0.22 | 0.33 |
| GGCTCGTTGGTCTAGGGATGTGATTCTCGCTTAGGGTGCGAGAGGTCCCGGGATCAAATCCCGGACGAGCCC [GAA G18A A20G T53A] | 3.03 | 0.25 | – |
| GGCTCGTTGGTCTAGGGGTGTGATTCTCGCTTAGGGTGCGAGAGGTCCCGGGTACAAATCCCGGACGAGCCC [GAA A20G T54A] | -0.747 | 0.5 | 0.25 |
| GGCTCGTTGGTCTAGAGGTATGATTCTCGCTTAGGGTGCGAGAGGTCCCGGGTTCGAAACCCGGACGAGCCC [AGA T59A] | 5.03 | 0.78 | – |
| GGCTCGTTGGTCTTGTGGTGTGATTCTCGCTTAGGGTGCGAGAGGTCCCGGGTTCAGATCCCGGACGAGCCC [TAG A14T A20G] | 6.26 | 0.2 | – |
| GGCTCGTTGGTCTTGTGGCATGATTCTCGCTTAGGGTGCGAGAGGTCCCGGGTTCAGATCCCGGACGAGCCC [TAG A14T T19C] | 5.2 | 0.56 | – |
| GGCTCGTTGGTCTAGGGGTGTGATTCTCGCTTAGGGTGCGAGAGGTCCCAGGTTCAAATCCCGGACGAGCCC [GAA A20G G50A] | 3.94 | 0.25 | – |
| GGCTCGTTGGTCTGGGGGTATGATTCTCGCTTAGGGTGCGAGAGGTCCCGGGTTCAAGTCCCGGACGAGCCC [GAA A14G A58G] | -1.21 | 0.25 | – |
| GGCTCGTTGGTCTACGGATATGATTCTCGCTTAGGGTGCGAGAGGTCCCGGGTTCAGATCCCGGACGAGCCC [GAG G15C G18A] | 3.13 | 0.5 | – |
| GGCTCGTTGGTCTAGCTGTATGATTCTCGCTTAGGGTGCGAGAGGTCCCGGGTTCTAATCCCGGACGAGCCC [CTA G17T] | 3.55 | 0.2 | – |
| GGCTCGTTGGTCTCGGGGTATGATTCTCGCTTAGGGTGCGAGAGGTCCCGGGTTCAAACCCCGGACGAGCCC [GAA A14C T59C] | 3.06 | 0.36 | – |
| GGCTCGTTGGTCTAGAGGTATGATTCTCGCTTAGGGTGCGAGAGGTCCCGGGATCGAATCCCGGACGAGCCC [AGA T53A] | 6.03 | 0.5 | – |
| GGCTCGTTGGTCTAGGGGATTGATTCTCGCTTAGGGTGCGAGAGGTCCCGGGTTCAGATCCCGGACGAGCCC [GAG T19A A20T] | 4.77 | 0.38 | – |
| GGCTCGTTTGTCTAGGGGTATGATTCTCGCTTAGGGTGCGAGAGGTCCCGGGTTCTGATCCCGGACGAGCCC [GTG G9T] | 3.75 | 0.14 | – |
| GGCTCGTTGGTCTAGTGGTATGATTCTCGCTTAGGGTGCGAGAGGTCCCGGGTTCTACTCCCGGACGAGCCC [TTA A58C] | 4.04 | 0.4 | – |
| GGCTCGTTGGTCTAGGCATATGATTCTCGCTTAGGGTGCGAGAGGTCCCGGGTTCATATCCCGGACGAGCCC [GAT G17C G18A] | 3.05 | 0.17 | – |
| GGCTCGTTGGTCTAGTGGGATGATTCTCGCTTAGGGTGCGAGAGGTCCCGGGTTCATATCCCGGACGAGCCC [TAT T19G] | 3.83 | 0.38 | – |
| GGCTCGTTGGTCTAGGGGTATGATTCTCGCTTAGGGTGCGAGAGGTCCCGGGTTCAGGTCCCGGACGAGCCC [GAG A58G] | 2.46 | 0.45 | – |

| Variant | tRNA Pol-III promoter activity (log2) [1] | tRNA 3' processing efficiency [2] | tRNA 5' processing efficiency [3] |
| --- | --- | --- | --- |
| GGCTCGTTGGTCTAGGGGCCTGATTCTCGCTTAGGGTGCGAGAGGTCCCGGGTTCCAATCCCGGACGAGCCC [GCA T19C A20C] | 4.93 | 0.33 | – |
| GGCTCGTTAGTCTAGGAGTATGATTCTCGCTTAGGGTGCGAGAGGTCCCGGGTTCATATCCCGGACGAGCCC [GAT G9A G17A] | 1.48 | 0.25 | – |
| GGCTCGTTGGTCTACGGGTATGATTCTCGCTTAGGGTGCGAGAGGTCCCGGGTTCAACTCCCGGACGAGCCC [GAA G15C A58C] | 0.14 | 0.34 | – |
| GGCTCGTTGGTCTAGGGGTTTGATTCTCGCTTAGGGTGCGAGAGGTCCCGGGTTCAACTCCCGGACGAGCCC [GAA A20T A58C] | 0.995 | 0.18 | 0.25 |
| GGCTCGTTGGTCTAGGGGTCTGATTCTCGCTTAGGGTGCGAGAGGTCCCGGGTTCAATACCCGGACGAGCCC [GAA A20C A58T T59A] | 6.51 | 0.5 | – |
| GGCTCGTTGGTCTAGCGTTATGATTCTCGCTTAGGGTGCGAGAGGTCCCGGGTTCTAATCCCGGACGAGCCC [CTA G18T] | 2.37 | 0.5 | – |
| GGCTCGTTGGTCTAGCGGCATGATTCTCGCTTAGGGTGCGAGAGGTCCCGGGATCACATCCCGGACGAGCCC [CAC T19C T53A] | 4.68 | 0.6 | – |
| GGCTCGTCGGTCTAGAGGTATGATTCTCGCTTAGGGTGCGAGAGGTCCCGGGTTCAATTCCCGGACGAGCCC [AAA T8C A58T] | 3.13 | 0.25 | – |
| GGCTCGTTGGTCTAGGGGTGTGATTCTCGCTTAGGGTGCGAGAGGTCCCGGGATCAAAGCCCGGACGAGCCC [GAA A20G T53A T59G] | 3.67 | 0.2 | – |
| GGCTCGTTGGTCTAGCGATTTGATTCTCGCTTAGGGTGCGAGAGGTCCCGGGTTCAAAGCCCGGACGAGCCC [CAA G18A A20T T59G] | 5.4 | 0.06 | – |
| GGCTCGTTGGTCTAGTGGTATGATTCTCGCTTAGGGTGCGAGAGGTCCCGGGTTCAGAACCCGGACGAGCCC [TAG T59A] | 5.36 | 0.3 | – |
| GGCTCGTTAGTCTAGGGGTATGATTCTCGCTTAGGGTGCGAGAGGTCCCGGGTTCAATGCCCGGACGAGCCC [GAA G9A A58T T59G] | 6.62 | 0.15 | – |
| GGCTCGTTGGTCTAGGGGTATGATTCTCGCTTAGGGTGCGAGAGGTCCCGGGTTCAACGCCCGGACGAGCCC [GAA A58C T59G] | 1.55 | 0.4 | 0.15 |
| GGCTCGTTGGTCTAGCGGTATGATTCTCGCTTAGGGTGCGAGAGGTCCCGGGTTTGAATCCCGGACGAGCCC [CGA C55T] | 4.58 | 0.32 | – |
| GGCTCGTTTGTCTAGGGGCATGATTCTCGCTTAGGGTGCGAGAGGTCCCGGGATCAAATCCCGGACGAGCCC [GAA G9T T19C T53A] | 4.62 | 0.33 | – |
| GGCTCGTTAGTCTAGGGGTATGATTCTCGCTTAGGGTGCGAGAGGTCCCGGGTTCACATCCCGGACGAGCCC [GAC G9A] | 0.896 | 0.4 | 0.5 |
| GGCTCGTTAGTCTAGTGGTATGATTCTCGCTTAGGGTGCGAGAGGTCCCGGGTTTAAATCCCGGACGAGCCC [TAA G9A C55T] | 2.83 | 0.17 | – |

Another view of part of the listing above.
Variant | tRNA Pol-III promoter activity (log2) [1] | tRNA 3' processing efficiency [2] | tRNA 5' processing efficiency [3]
GGCTCGTCGGTCTAGAGGTATGATTCTCGCTTAGGGTGCGAGAGGTCCCGGGTTCAATTCCCGGACGAGCCC [AAA T8C A58T] | 3.13 | 0.25 | –
GGCTCGTTGGTCTAGGGGTGTGATTCTCGCTTAGGGTGCGAGAGGTCCCGGGATCAAAGCCCGGACGAGCCC [GAA A20G T53A T59G] | 3.67 | 0.2 | –
